The values below come from PMC2794253.

The assay has as its target bZIP63 (UniProt B9DGI8). Put plainly: split reporter; BiFC in Arabidopsis mesophyll protoplasts from the Tape-Arabidopsis Sandwich method; PEG-mediated co-transfection of plasmids for bZIP63 fused to the N-terminus and the C-terminus of GFP; fluorescence seen in the nucleus.

These are yes or no findings as the source states them, for the method shown. Binding seen in cells or lysates may run through a third protein. Some results given as binding are weak or reduced against the parent protein; the word gives no strength.

B1: bZIP63 (protein, UniProt B9DGI8 1-314)
chain: MEKVFSDEEISGNHHWSVNGMTSLNRSASEWAFNRFIQESSAAADDGESTTACGVSVSSPPNVPVDSEEYRAFLKSKLNLACAAVAMKRGTFIKPQDTSGRSDNGGANESEQASLASSKATPMMSSAITSGSELSGDEEEADGETNMNPTNVKRVKRMLSNRESARRSRRRKQAHLSELETQVSQLRVENSKLMKGLTDVTQTFNDASVENRVLKANIETLRAKVKMAEETVKRLTGFNPMFHNMPQIVSTVSLPSETSNSPDTTSSQVTTPEIISSGNKGKALIGCKMNRTASMRRVESLEHLQKRIRSVGDQ
With B1, the binding result is “binds”.
